About 4,300 (3.1%) of roughly 140,000 compounds were called active. Inconclusive results, whose numbers are uncertain, are shown with a selection of clear calls.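 How the source made its calls: active means readout at or below -70, meaning at least 70% loss of cells showing the perinucleolar compartment, a nuclear body marking cancer cells; inconclusive means readout between -30 and a set limit; inactive means the rest.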
Experiment: High Content Assay for Compounds that inhibit the Assembly of the Perinucleolar Compartment;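 further: plate controls were DMSO wells for no effect and camptothecin positive control wells for full effect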
Details: PC3M PTB-GFP, PNC prevalence imaging, 16 h; at 10 µM; stronger effect = lower value
Summary of the method: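 Read-out is percentage of cells bearing a perinucleolar compartment, from automated 20x imaging of fixed, Hoechst-stained PC3M PTB-GFP cells. Cells were seeded 4 h, then exposed 16 h to compound (23 nl of library stock) in duplicate plates.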

| SMILES | activity change (PNC), negative = inhibition |
| --- | --- |
| O=C(O)CNC(=O)c1ccccc1NC(=O)c1ccco1 | inconclusive: -54.4% |
| CC(Cc1ccccc1)NC(=O)C1(c2ccccc2)CCOCC1 (centres undefined) | inconclusive: -51.8% |
| Cc1ccc(-n2ncc3c(=O)[nH]c(SCC(=O)N4CCCC4)nc32)cc1C | inactive: 21.4% |
| COCCn1c(=NC(=O)c2nc3ccccc3s2)sc2cc(S(C)(=O)=O)ccc21 | inactive: 0% |
| CC(C)(C)n1c(=O)[nH]c2c(c1=O)CCC2 | inconclusive: -31.2% |
| CC1=C(C(=O)OCc2ccccc2)C(/C=C/c2ccccc2)NC(=S)N1 (centres undefined) | inactive: 13.9% |
| O=C(NCc1ccco1)c1nnc(Cc2ccc(Cl)cc2)o1 | inactive: 12.6% |
| COC(=O)CSc1nc(N)c2c3c(sc2n1)C(c1ccccc1)SC(c1ccccc1)C3 (centres undefined) | inactive: -8.75% |
| Cc1ccccc1NC(=O)Nc1cccs1 | inconclusive: -65.2% |
| O=C(OC(C(=O)NCc1ccc2c(c1)OCO2)c1ccc(Cl)cc1)c1ccco1 (centres undefined) | inactive: -3.62% |
| O=c1nc(N2CCOCC2)nc2n1CCO2 | inconclusive: -31.6% |
| Cc1cccc2cc3c(N)c(C(=O)N4CCCc5ccccc54)sc3nc12 | active: -97.5% |
| O=C(CN1C(=O)S/C(=C\c2ccccc2)C1=O)NNC(=O)c1ccccc1O | inconclusive: -70.7% |
| COc1ccc(NC(=O)C(c2ccccc2)N(C)C(=O)c2ccc(=O)[nH]c2)cc1 (centres undefined) | inconclusive: -52.2% |
| CCOC(=O)CN(C(=O)CSc1nnc(COc2ccc(OC)cc2)n1C)c1ccccc1 | inconclusive: -38.1% |
| Cc1cc(C(=O)NNC(=S)NC(C)c2ccccc2)c2ccccc2n1 (centres undefined) | inactive: 39.6% |
| Nc1cccc(-c2nc3ccc(N)cc3s2)c1 | inconclusive: -78.9% |
| FC(F)(F)c1cc(-c2cccs2)nc(-n2cc(Br)cn2)n1 | inconclusive: -40.7% |
| Clc1ccc(Cc2nn3c(Cn4nnc5ccccc54)nnc3s2)cc1 | inconclusive: -74.3% |
| O=c1c2cnn(-c3ccccc3)c2ncn1Cc1ccccn1 | inconclusive: -51.7% |
| CC(C)c1nc(SCC(=O)N2CCCC2)c2ccccc2n1 | inactive: 25.8% |
| CC1CN(S(=O)(=O)c2cccc(C(=O)NN3CCN(C)CC3)c2)CC(C)O1 (centres undefined) | inconclusive: -36.8% |
| CCN(CC)S(=O)(=O)c1ccc(NC(=O)COC(=O)CN2C(=O)c3ccccc3C2=O)cc1 | inconclusive: -34.8% |

A different layout for part of the listing above.
SMILES	activity change (PNC), negative = inhibition
O=c1c2cnn(-c3ccccc3)c2ncn1Cc1ccccn1	inconclusive: -51.7%
CCN(CC)S(=O)(=O)c1ccc(NC(=O)COC(=O)CN2C(=O)c3ccccc3C2=O)cc1	inconclusive: -34.8%

Additional structures follow:

| SMILES | activity change (PNC), negative = inhibition |
| --- | --- |
| CCOC(=O)N1CCC2(CC1)C(C#N)=C(N)Oc1n[nH]c(CSc3ccc(C)cc3)c12 | inactive: 41.7% |
| CCOC(=O)CSC1=Nc2ccccc2C2=NC(CC(=O)NCc3ccccc3)C(=O)N12 (centres undefined) | inconclusive: -45.4% |
| Cc1cccc(NC(=O)c2sc(Cl)nc2C)c1C | inconclusive: -57.5% |
| O=C1[C@@H]2[C@H](C(=O)N1n1cnnc1)[C@H]1C=C[C@@H]2C1 | inconclusive: -58.7% |
| FC(F)(F)c1nc2ccccc2nc1N/N=C/c1c(Cl)cccc1Cl | inactive: 13.3% |
| Clc1ccc(OCCCNCc2ccccc2)c(Br)c1 | active: -89.3% |
| Cc1c(C(=O)N2CCCCC2)nnn1-c1nonc1N | inconclusive: -54% |
| N#CC(/C(=N/S(=O)(=O)c1cccs1)c1ccccc1)c1nc2ccccc2[nH]1 (centres undefined) | inconclusive: -35.4% |
| Cc1ccc(CNc2ncnc3cc(Cl)ccc23)o1 | inactive: 8% |
| O=C1C(Cl)=C(N2CCCCCC2)C(=O)N1c1ccccc1 | inconclusive: -59.6% |
| Cc1cc2nc(SCCOC(=O)Nc3cccc(Cl)c3)nc(C)c2cc1C | inconclusive: -33.1% |
| CC(Sc1ncnc2ccccc12)C(=O)Nc1ccc2c(c1)OCO2 (centres undefined) | inconclusive: -31.3% |
| CN(Cc1cccs1)C(=O)COc1cccc(-n2cnnn2)c1 | inconclusive: -47.7% |
| CN(c1cccc(NC(=O)c2ccc(Cl)c(S(=O)(=O)Nc3ccccc3)c2)c1)S(C)(=O)=O | inconclusive: -37.2% |
| Cc1cccc(CN2CCN(CC(=O)N3CCCC3)C2=O)c1 | inconclusive: -44.8% |
| COc1ccc([N+](=O)[O-])c2c(=O)ccoc12 | inconclusive: -37.7% |
| CC(=O)CCc1c(C)[nH]c2ccccc2c1=O | inconclusive: -66% |
| O=C(OCC(=O)N1CCc2ccccc21)c1cccc(S(=O)(=O)N2CCCc3ccccc32)c1 | inconclusive: -39.6% |
| OC(CNCc1ccccn1)c1ccccc1 (centres undefined) | inconclusive: -38.8% |
| CCOC(=O)Cn1nc(-c2ccccc2)c2cnc3ccc(CC)cc3c21 | inconclusive: -61.7% |
| O=C(CSc1nnc(-c2ccccc2)n1C1CCCCC1)N1CCCC1 | inconclusive: -44.8% |
| Cc1nn(CC#N)c(=O)n1-c1ccc(F)cc1 | inactive: -1.61% |
| C/C(N)=C(/C#N)C(=O)CSc1nc2ccccc2c(=O)n1CCCOC(C)C | inconclusive: -60.6% |

| SMILES | activity change (PNC), negative = inhibition |
| --- | --- |
| O=C(CSc1nnc2c3c4c(sc3ncn12)CCCC4)NCc1ccco1 | inconclusive: -41.9% |
| CC1CC(C)CN(C(=O)C(NS(=O)(=O)c2ccc(Br)s2)c2ccccc2)C1 (centres undefined) | inconclusive: -70% |
| CC(C)(C)c1ccc(C(=O)CC(=O)c2cc(Cl)ccc2O)cc1 | inactive: 29.5% |
| O=C(CCc1[nH]c2ccccc2c1Sc1ccccc1)NCCO | inconclusive: -43% |
| O=C(COC(=O)c1c2c(nc3ccccc13)CCCC2)c1ccc(Br)s1 | inactive: 17.9% |
| COc1ccc2[nH]cc(C(=O)N3CCCCC3)c(=O)c2c1 | inconclusive: -51.2% |
| CCn1c(C)cc(/C=C2\NC(=O)N(CC(=O)Nc3cccc(C)c3)C2=O)c1C | inactive: 0.395% |
| CCn1c(CSCc2ccc(C)cc2)nnc1SCC(=O)N1CCN(c2ccccc2)CC1 | inactive: 22.2% |
| CCO/N=C(/c1nonc1N)N1CCN(c2ccc([N+](=O)[O-])cc2)CC1 | inactive: -13.4% |
| CCOc1cc(CNc2ccc3c(c2)OCCO3)cc(Br)c1OC | inconclusive: -64.4% |
| COc1ccc(CNC(=O)C(c2ccncc2)N(C(=O)Cc2cccs2)c2ccccc2)cc1 (centres undefined) | inactive: -13.6% |
| CCc1nnc(NC(=O)C2COc3ccccc3O2)s1 (centres undefined) | active: -80.1% |
| Cc1ccc(-c2noc(CCC(=O)NCC3CCN(Cc4cccc(C)c4)CC3)n2)cc1 | inconclusive: -66.4% |
| CCc1nc(SCC(=O)NCc2ccco2)c2c(=O)n(C)c(=O)n(C)c2n1 | inconclusive: -44.4% |
| Cn1c(=O)[nH]c(=O)c2c1nc(CN1CCOCC1)n2Cc1ccccc1 | inconclusive: -56% |
| Cc1ccccc1Cn1cnc2ccccc2c1=O | inconclusive: -60.8% |
| Cc1ccc(Nc2ccc(S(=O)(=O)N3CCOCC3)cc2[N+](=O)[O-])c(C)c1 | inconclusive: -37.3% |
| CCNc1ccc(C(=O)OCC(=O)N2c3ccccc3NC(=O)C2(C)C)cc1[N+](=O)[O-] | active: -112% |
| CC(=NCc1ccco1)c1c(C(F)(F)F)[nH]n(-c2nc3ccccc3s2)c1=O | inconclusive: -57.3% |
| O=C(CN(C(=O)CCC(=O)Nc1nccs1)c1ccc(F)cc1)NCc1ccco1 | inconclusive: -50.6% |
| O=C(Cc1ccccc1)Nc1ccccc1C(=O)Nc1ccccc1 | active: -120% |
| COc1ccc(C2CC(c3ccccc3)=NN2C(=O)CSc2nccc(=O)[nH]2)cc1 (centres undefined) | inconclusive: -32.6% |
| O=[N+]([O-])c1ccc(-c2cnc(NO)nc2)cc1 | inconclusive: -49.7% |

Quoted from the entries so far for reference:

| SMILES | activity change (PNC), negative = inhibition |
| --- | --- |
| CCc1nc(SCC(=O)NCc2ccco2)c2c(=O)n(C)c(=O)n(C)c2n1 | inconclusive: -44.4% |
| Cn1c(=O)[nH]c(=O)c2c1nc(CN1CCOCC1)n2Cc1ccccc1 | inconclusive: -56% |
| Cc1ccccc1Cn1cnc2ccccc2c1=O | inconclusive: -60.8% |
| Cc1ccc(Nc2ccc(S(=O)(=O)N3CCOCC3)cc2[N+](=O)[O-])c(C)c1 | inconclusive: -37.3% |

Remaining list, next part

| SMILES | activity change (PNC), negative = inhibition |
| --- | --- |
| O=C(NC(=O)c1cccc(OC(F)(F)C(F)F)c1)OC1CCS(=O)(=O)C1 (centres undefined) | inconclusive: -42.6% |
| COC(/C=C/Nc1ccc(C)cc1)=C(C#N)C#N | inconclusive: -67.7% |
| CC(Sc1nc(N)cc(=O)[nH]1)C(=O)Nc1cccc(Cl)c1 (centres undefined) | inconclusive: -64.5% |
| O=C(CNS(=O)(=O)c1cccs1)N1CCCC1 | inconclusive: -42.3% |
| CC(=O)N1C=CN(C(C)=O)C(c2cn(C)c3ccccc23)C1c1cn(C)c2ccccc12 (centres undefined) | inconclusive: -33.6% |
| CCOC(=O)c1cn(CC)c2ccc(S(=O)(=O)N3CCC(C)CC3)cc2c1=O | inconclusive: -45.8% |
| COC(=O)c1nc(-n2nc(C)cc2C)ccc1Cl | inconclusive: -49.8% |
| CCC(C)(C)n1nnnc1C(c1cccs1)N1CCN(c2nc3ccccc3s2)CC1 (centres undefined) | inconclusive: -57.2% |
| CN(C)c1ccc(C(=S)N2CCOCC2)cc1 | inactive: -18.6% |
| O=C(Nc1ccc(-c2nnc3n2CCCCC3)cc1)c1cnccn1 | inactive: -17.9% |
| O=C(O)COc1ccc2c(-c3ccccc3)cc(=O)oc2c1 | inconclusive: -38.7% |
| Clc1ccccc1-c1nnc2sc(C3COc4ccccc4O3)nn12 (centres undefined) | inconclusive: -64.1% |
| Cc1c(NC(=O)CN2c3cccc4cccc(c34)S2(=O)=O)c(=O)n(-c2ccccc2)n1C | inconclusive: -78.5% |
| CC(C)(C)NC(=S)NCc1ccc2c(c1)OCO2 | inconclusive: -69.2% |
| CN1CCN(S(=O)(=O)c2ccc(Sc3nnc(-c4cccs4)n3-c3ccccc3)nc2)CC1 | inconclusive: -51% |
| CC(C)CCN1C(=O)c2ccc(C(=O)NCc3ccco3)cc2C1=O | inconclusive: -69.7% |
| COCCCNC(=O)C(Cc1ccccc1)NS(=O)(=O)c1ccc2c(c1)c(=O)n(C)c(=O)n2C (centres undefined) | inconclusive: -43.4% |
| CCOC(=O)C1=C(CC)Nc2ccccc2N=C1NC(=O)c1cccc(S(=O)(=O)N2CCCC2)c1 | active: -114% |
| CCCn1c(SCC(=O)Nc2ccc(OC)cc2)nnc1-c1ccncc1 | inactive: 28.5% |
| CCCCOC(=O)c1ccc(N/C(=N\S(=O)(=O)c2ccccc2)c2ccccc2)cc1 | inconclusive: -31.5% |

Reference: PubChem BioAssay AID2417 (National Center for Advancing Translational Sciences (NCATS), 2010)
